Measurements taken from publication PMC5119725.
These are yes or no findings as the source states them, for the method shown. In cells and extracts the contact can be indirect. Some results given as binding are weak or reduced against the parent protein; the word gives no strength. Sequences can lack the tags named with a protein.

How the values were obtained:
[1] = target: T1, Human C9orf72 Isoform A with a C-terminal Flag tag (human) (UniProt Q96LT7); assay: co-IP; lysates of transfected HEK293T cells in IP buffer (50 mM Tris pH 7.4, 150 mM NaCl, 1% Triton) on Flag-conjugated beads, 2 h at 4°C, 5 washes, immunoblot
T1 sequence: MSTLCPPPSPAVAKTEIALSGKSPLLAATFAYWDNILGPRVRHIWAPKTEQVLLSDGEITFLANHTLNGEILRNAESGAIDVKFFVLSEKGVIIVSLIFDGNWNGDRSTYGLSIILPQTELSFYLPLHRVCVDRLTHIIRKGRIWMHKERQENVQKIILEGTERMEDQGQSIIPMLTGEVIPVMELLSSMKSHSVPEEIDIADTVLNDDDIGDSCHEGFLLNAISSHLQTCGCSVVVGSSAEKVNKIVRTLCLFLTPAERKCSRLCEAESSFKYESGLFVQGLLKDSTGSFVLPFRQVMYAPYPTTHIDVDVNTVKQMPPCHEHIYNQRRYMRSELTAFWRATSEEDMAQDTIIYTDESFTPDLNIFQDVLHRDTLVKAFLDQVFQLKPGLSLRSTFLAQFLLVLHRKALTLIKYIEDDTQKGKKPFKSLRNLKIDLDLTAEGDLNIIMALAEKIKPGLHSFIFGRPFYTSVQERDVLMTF

[2] = target: T2, Smith-Magenis syndrome chromosome region candidate 8 (SMCR8), endogenous (human (endogenous in HEK293T)) (UniProt Q8TEV9); assay: co-IP; lysates of HEK293T cells transfected with C9orf72-Flag, anti-SMCR8 antibody and protein A Sepharose beads, control IgG, immunoblot
T2 sequence: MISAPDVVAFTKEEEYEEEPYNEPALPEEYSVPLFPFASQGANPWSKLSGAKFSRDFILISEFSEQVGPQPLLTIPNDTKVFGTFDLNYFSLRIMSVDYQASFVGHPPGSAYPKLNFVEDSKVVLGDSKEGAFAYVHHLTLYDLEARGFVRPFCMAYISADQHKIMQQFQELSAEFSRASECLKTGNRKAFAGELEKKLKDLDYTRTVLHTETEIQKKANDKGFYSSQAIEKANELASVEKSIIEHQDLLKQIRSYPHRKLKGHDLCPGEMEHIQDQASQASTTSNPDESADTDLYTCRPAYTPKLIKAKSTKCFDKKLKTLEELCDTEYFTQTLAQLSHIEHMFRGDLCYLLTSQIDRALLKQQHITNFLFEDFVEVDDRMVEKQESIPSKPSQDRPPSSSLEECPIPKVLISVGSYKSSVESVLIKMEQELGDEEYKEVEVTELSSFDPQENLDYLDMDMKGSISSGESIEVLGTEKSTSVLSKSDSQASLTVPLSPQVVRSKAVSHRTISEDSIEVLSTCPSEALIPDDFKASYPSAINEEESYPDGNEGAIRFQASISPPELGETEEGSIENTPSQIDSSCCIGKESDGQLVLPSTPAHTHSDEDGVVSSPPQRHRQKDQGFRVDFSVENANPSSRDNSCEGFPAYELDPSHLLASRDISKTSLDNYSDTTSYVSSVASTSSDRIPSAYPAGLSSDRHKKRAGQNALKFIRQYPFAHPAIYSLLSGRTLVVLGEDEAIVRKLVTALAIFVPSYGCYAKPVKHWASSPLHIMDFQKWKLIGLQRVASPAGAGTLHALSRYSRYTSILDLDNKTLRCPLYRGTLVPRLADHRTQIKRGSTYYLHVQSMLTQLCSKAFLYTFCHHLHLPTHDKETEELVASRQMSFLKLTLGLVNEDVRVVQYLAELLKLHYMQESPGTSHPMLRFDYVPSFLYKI

Flag-SMCR8 = target: T3, Flag-SMCR8 (UniProt Q8TEV9); assay: co-IP; lysates of transfected HEK293T cells in IP buffer (50 mM Tris pH 7.4, 150 mM NaCl, 1% Triton) on Flag-conjugated beads, 2 h at 4°C, 5 washes, immunoblot
T3 sequence: T2 sequence

B1: Smith-Magenis syndrome chromosome region candidate 8 (SMCR8), endogenous (protein, UniProt Q8TEV9 1-937)
chain: T2 sequence
binding [1]: binds

B2: Human C9orf72 Isoform A with a C-terminal Flag tag (protein, UniProt Q96LT7 1-481)
chain: T1 sequence
binding [2]: binds

B3: C9orf72-V5 (protein, UniProt Q96LT7 1-481)
chain: T1 sequence
binding (Flag-SMCR8): binds
